Source: PubChem BioAssay AID720505 (Drosophila RNAi Screening Center, 2013)

- Aim: 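Fly regulators or components of the CRAC channel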 (primary screen)
- Cell system: Drosophila S2R+ cells
- Knock-down reagent: long dsRNA against Drosophila genes
- Treatment: thapsigargin (2 µM) in calcium-free buffer to empty internal stores, then 2 mM calcium added back
- Measurement: 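Fluo-4 signal in 384-well plates read on a FLIPR after thapsigargin (2 µM, calcium-free) store depletion and 2 mM calcium add-back; unnormalised mean endpoint per well; screen run twice, selected wells retested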
- Direction: calcium signal and retest calcium signal: higher = more calcium entry after store depletion
- Rule for the call: 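Knock-downs counted as hits when calcium entry dropped relative to STIM1 positive and Rho1 negative controls present on each plate; roughly 1500 genes called, with reductions of differing size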
- Meaning of the calls: active = called as lowering calcium entry; inactive = not called
The deposit covers about 20,000 reagents; below is a random part of those with a known target gene and a result. Of all reagents, about 2,100 (10%) are marked active. 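Raw plate signals without normalisation; calls rest on control-based scores that were not deposited; replicate 2 separates called from uncalled poorly.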 Names joined by + are all predicted targets of the reagent. The record does not give: the amount of reagent, the time to read-out.

target | amplicon | calcium signal, replicate 1 | calcium signal, replicate 2 | retest calcium signal, replicate 1 | retest calcium signal, replicate 2 | outcome
Eig71Eg | DRSC11154 | 89.5 | 128 | – | – | inactive
CG1113 | DRSC12163 | 101 | 79.2 | – | – | inactive
RpLP1 | DRSC00783 | 210 | 94.7 | – | – | inactive
RpLP1 | DRSC22145 | 68.5 | 93.2 | – | – | active
CG5556 | DRSC00687 | 149 | 172 | – | – | inactive
ppk9 | DRSC04134 | 156 | 88 | – | – | inactive
ppk9 | DRSC04135 | 182 | 107 | – | – | inactive
flz | DRSC07109 | 105 | 123 | – | – | inactive
CG1523 | DRSC15033 | 131 | 178 | – | – | inactive
CG15465 | DRSC18048 | 66.7 | 239 | – | – | active
CG18095 | DRSC01948 | 136 | 167 | – | – | inactive
Pgam5 | DRSC18551 | 96.5 | 136 | – | – | inactive
CG12782 | DRSC04127 | 69.2 | 131 | – | – | inactive
Srpk79D | DRSC11668 | 118 | 107 | – | – | inactive
Srpk79D | DRSC11856 | 107 | 109 | – | – | inactive
axed | DRSC10982 | 86 | 67.7 | – | – | inactive
5-HT1B | DRSC05031 | 112 | 121 | – | – | inactive
5-HT1B | DRSC05769 | 64.1 | 64.4 | – | – | active
Cyp316a1 | DRSC11130 | 139 | 108 | – | – | inactive
CG10936 | DRSC05669 | 114 | 106 | – | – | inactive
CG10936 | DRSC05670 | 114 | 99.1 | – | – | inactive
CG10936 | DRSC06018 | 169 | 141 | – | – | inactive
CG10859 | DRSC02110 | 78.7 | 96.6 | – | – | inactive
MCTS1 | DRSC18393 | 115 | 119 | – | – | inactive
MetRS-m | DRSC16443 | 145 | 130 | – | – | inactive
MetRS-m | DRSC16515 | 83.8 | 86.8 | – | – | inactive
SmD1 | DRSC09800 | 90.8 | 91.5 | – | – | inactive
CG9997 | DRSC16591 | 153 | 205 | – | – | inactive
Rad17 | DRSC16811 | 139 | 206 | – | – | inactive
alpha-Est9 | DRSC12621 | 109 | 135 | – | – | inactive
CG17646 | DRSC00507 | 103 | 300 | – | – | inactive
bap | DRSC16908 | 91.4 | 136 | – | – | inactive
CG4025 | DRSC18523 | 122 | 123 | – | – | inactive
Vps51 | DRSC06519 | 67.4 | 128 | – | – | active
CG31548 | DRSC22640 | 108 | 158 | – | – | inactive
Ugt36F1 | DRSC02601 | 93.1 | 75.4 | – | – | inactive
vito | DRSC21781 | 145 | 109 | – | – | inactive
Ufd4 | DRSC02871 | 202 | 124 | – | – | inactive
CG31556 (retired record) | DRSC12122 | 9962 | 174 | – | – | active
CG31556 (retired record) | DRSC22177 | 112 | 225 | – | – | inactive
CG8997 | DRSC01900 | 74.1 | 104 | – | – | active
CG1344 | DRSC04837 | 117 | 107 | – | – | inactive
CG43777 + CG43776 + CG43775 | DRSC04206 | 111 | 142 | – | – | inactive
Lamtor2 + CG30120 | DRSC05726 | 120 | 97.6 | – | – | inactive
Lamtor2 + CG30120 | DRSC06922 | 169 | 152 | – | – | inactive
CG15553 | DRSC15091 | 175 | 118 | – | – | inactive
Ski6 | DRSC02491 | 80.4 | 101 | – | – | active
RacGAP84C | DRSC12630 | 110 | 113 | – | – | inactive
CG13028 | DRSC09908 | 88.2 | 202 | – | – | inactive
SrpRalpha | DRSC20251 | 118 | 64.9 | – | – | inactive
Usp39 | DRSC20032 | 149 | 117 | – | – | inactive
mnd | DRSC11370 | 80.9 | 179 | – | – | inactive
Prm | DRSC11255 | 79.8 | 83.2 | – | – | inactive
alphaSnap | DRSC11285 | 65 | 66.4 | – | – | active
CG3880 | DRSC04428 | 171 | 176 | – | – | inactive
CG3880 | DRSC21404 | 229 | 149 | – | – | inactive
CG43057 | DRSC01015 | 152 | 89.2 | – | – | inactive
CG4679 | DRSC06880 | 101 | 178 | – | – | inactive
CG13159 | DRSC06283 | 49.1 | 49 | 116 | 209 | active
CG32409 | DRSC08780 | 8038 | 153 | – | – | active
Npc2h | DRSC14297 | 176 | 136 | – | – | inactive
CG8916 | DRSC20120 | 102 | 137 | – | – | inactive
mira | DRSC16998 | 214 | 267 | – | – | inactive
Ost48 | DRSC18693 | 142 | 114 | – | – | inactive
CG14736 | DRSC14956 | 110 | 82.2 | – | – | inactive
Rep | DRSC07526 | 154 | 99.9 | – | – | inactive
CG11523 | DRSC11669 | 150 | 110 | – | – | inactive

The list goes on; the last 10 above are carried over.
target | amplicon | calcium signal, replicate 1 | calcium signal, replicate 2 | retest calcium signal, replicate 1 | retest calcium signal, replicate 2 | outcome
CG4679 | DRSC06880 | 101 | 178 | – | – | inactive
CG13159 | DRSC06283 | 49.1 | 49 | 116 | 209 | active
CG32409 | DRSC08780 | 8038 | 153 | – | – | active
Npc2h | DRSC14297 | 176 | 136 | – | – | inactive
CG8916 | DRSC20120 | 102 | 137 | – | – | inactive
mira | DRSC16998 | 214 | 267 | – | – | inactive
Ost48 | DRSC18693 | 142 | 114 | – | – | inactive
CG14736 | DRSC14956 | 110 | 82.2 | – | – | inactive
Rep | DRSC07526 | 154 | 99.9 | – | – | inactive
CG11523 | DRSC11669 | 150 | 110 | – | – | inactive
stw | DRSC04842 | 128 | 158 | – | – | inactive
stw | DRSC04843 | 127 | 203 | – | – | inactive
stw | DRSC22527 | 104 | 95.1 | – | – | inactive
Crtc | DRSC10578 | 88.7 | 151 | – | – | inactive
Crtc | DRSC23130 | 85 | 171 | – | – | inactive
trh | DRSC08355 | 127 | 74.2 | – | – | inactive
trh | DRSC08739 | 120 | 125 | – | – | inactive
NimB5 + He | DRSC22876 | 97.8 | 160 | – | – | inactive
CG1142 | DRSC12531 | 106 | 185 | – | – | inactive
Cyp28d1 | DRSC03298 | 106 | 233 | – | – | inactive
Cyp28d1 | DRSC21331 | 128 | 87.8 | – | – | inactive
sty | DRSC08737 | 68.8 | 98.1 | – | – | inactive
sty | DRSC22994 | 99.3 | 140 | – | – | inactive
slou | DRSC17058 | 178 | 100 | – | – | inactive
Lap1 | DRSC07454 | 114 | 166 | – | – | inactive
Fem-1 | DRSC07322 | 67.1 | 91.7 | – | – | inactive
Sp1 | DRSC18717 | 103 | 78.7 | – | – | inactive
Uba5 | DRSC19775 | 83.3 | 88.3 | – | – | inactive
lncRNA:CR43242 | DRSC03827 | 167 | 80.8 | – | – | inactive
CG2129 | DRSC18209 | 91.2 | 71.9 | – | – | inactive
Fgop2 | DRSC02016 | 74.5 | 112 | – | – | inactive
CG14641 | DRSC12227 | 141 | 88.3 | – | – | inactive
Dh44-R2 | DRSC06141 | 122 | 215 | – | – | inactive
Dh44-R2 | DRSC06281 | 135 | 208 | – | – | inactive
CG3071 | DRSC18526 | 112 | 162 | – | – | inactive
CG1307 | DRSC12492 | 98.6 | 102 | – | – | inactive
nanos | DRSC17018 | 219 | 128 | – | – | inactive
CG15641 | DRSC19677 | 95 | 128 | – | – | inactive
sosie | DRSC14636 | 119 | 89.7 | – | – | inactive
sosie | DRSC21382 | 160 | 95.9 | – | – | inactive
RpS21 | DRSC00833 | 104 | 123 | – | – | inactive
pix | DRSC10533 | 55 | 41 | – | – | active
cmb | DRSC09790 | 90.6 | 103 | – | – | inactive
CG11885 | DRSC00329 | 147 | 182 | – | – | inactive
CG15254 | DRSC01870 | 133 | 136 | 136 | 124 | inactive
CG15254 | DRSC21765 | 130 | 137 | – | – | inactive
Mco4 | DRSC20061 | 100 | 110 | – | – | inactive
CG11317 | DRSC14299 | 117 | 150 | – | – | inactive
AP-1sigma | DRSC15899 | 140 | 123 | – | – | inactive
